# Experimental data reported in the supplement of paper PMC11438910.
# This is one part of the list. The signal is at background level for most entries.
# B1: 4-173.1 (protein)
# chain 1: QLQLQESGPGLVKPSETLSLTCAVSGASISSNYWSWIRQAPGKGLEWIGRISGSSGSTDYNPSLKSRVTISTDTSKNQFSLKLNSVTAADTAVYYCARVSYWGHYGDYWGQGVLVTVSS
# chain 2: QPVLTQPSSHSASPGAPARLTCTLSSGFSVGDFWIRWYQQKPGSPPRYLLYYHSDSDKHQGSGVPSRFSGSNDASANAGILHISGLQPEDEADYYCCTWHGNSKTQIFGAGTRLTVL
# Experiments:
# Test in all cases: fluorescence intensity of antibody binding to polysaccharide-coupled beads; higher = stronger binding
# [1] = target: pneumococcal polysaccharide Pn2
# Protocol: (§1)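 Recombinant rhesus-murine chimeric IgG1 antibodies were tested against antigen-coupled MagPlex beads in a 96-plex Luminex direct immunoassay (dLIA). The beads carried pneumococcal capsular polysaccharides of 93 serotypes plus C-polysaccharides. Antibody was added at 0.1–12,500 ng/mL for 1 h, then PE anti-mouse IgG, and net MFI was read on a Bio-Plex 3D. Only the rhesus variable regions are printed; constant regions are murine IgG1/kappa/lambda, and the signal peptide is MGWSCIILFLVATATGVHS.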
# [2] = target: pneumococcal polysaccharide Pn20A
# Protocol: as §1
# [3] = target: pneumococcal polysaccharide Pn20B
# Protocol: as §1
# [4] = target: pneumococcal polysaccharide Pn21
# Protocol: as §1
# [5] = target: pneumococcal polysaccharide Pn22A
# Protocol: as §1
# [6] = target: pneumococcal polysaccharide Pn22F
# Protocol: as §1
# [7] = target: pneumococcal polysaccharide Pn23A
# Protocol: as §1
# [8] = target: pneumococcal polysaccharide Pn23B
# Protocol: as §1
# [9] = target: pneumococcal polysaccharide Pn23F
# Protocol: as §1
# [10] = target: pneumococcal polysaccharide Pn24A
# Protocol: as §1
# [11] = target: pneumococcal polysaccharide Pn24B
# Protocol: as §1
# [12] = target: pneumococcal polysaccharide Pn24F
# Protocol: as §1
# [13] = antibody concentration 2337.65 ng/mL
# [14] = antibody concentration 12500 ng/mL
# [15] = antibody concentration 0.1 ng/mL
# [16] = antibody concentration 0.534724 ng/mL
# [17] = antibody concentration 2.8593 ng/mL
# [18] = antibody concentration 15.2894 ng/mL
# [19] = antibody concentration 81.7561 ng/mL
# [20] = antibody concentration 437.17 ng/mL
binder,measurement,setting,value
B1,fluorescence intensity,[1]; [13],21 MFI
same,fluorescence intensity,[1]; [14],27 MFI
same,fluorescence intensity,[2]; [15],24 MFI
same,fluorescence intensity,[2]; [16],23.2 MFI
same,fluorescence intensity,[2]; [17],24.5 MFI
same,fluorescence intensity,[2]; [18],24 MFI
same,fluorescence intensity,[2]; [19],23.8 MFI
same,fluorescence intensity,[2]; [20],24.5 MFI
same,fluorescence intensity,[2]; [13],26 MFI
same,fluorescence intensity,[2]; [14],47.8 MFI
same,fluorescence intensity,[3]; [15],25.5 MFI
same,fluorescence intensity,[3]; [16],24 MFI
same,fluorescence intensity,[3]; [17],27 MFI
same,fluorescence intensity,[3]; [18],25.5 MFI
same,fluorescence intensity,[3]; [19],25.5 MFI
same,fluorescence intensity,[3]; [20],24.5 MFI
same,fluorescence intensity,[3]; [13],25 MFI
same,fluorescence intensity,[3]; [14],29.5 MFI
same,fluorescence intensity,[4]; [15],20.2 MFI
same,fluorescence intensity,[4]; [16],21 MFI
same,fluorescence intensity,[4]; [17],19.2 MFI
same,fluorescence intensity,[4]; [18],17.5 MFI
same,fluorescence intensity,[4]; [19],21 MFI
same,fluorescence intensity,[4]; [20],19.5 MFI
same,fluorescence intensity,[4]; [13],20.2 MFI
same,fluorescence intensity,[4]; [14],23 MFI
same,fluorescence intensity,[5]; [15],23.2 MFI
same,fluorescence intensity,[5]; [16],22 MFI
same,fluorescence intensity,[5]; [17],22.8 MFI
same,fluorescence intensity,[5]; [18],23 MFI
same,fluorescence intensity,[5]; [19],21.5 MFI
same,fluorescence intensity,[5]; [20],22 MFI
same,fluorescence intensity,[5]; [13],23.5 MFI
same,fluorescence intensity,[5]; [14],33 MFI
same,fluorescence intensity,[6]; [15],31.2 MFI
same,fluorescence intensity,[6]; [16],31.5 MFI
same,fluorescence intensity,[6]; [17],32.5 MFI
same,fluorescence intensity,[6]; [18],30 MFI
same,fluorescence intensity,[6]; [19],32.8 MFI
same,fluorescence intensity,[6]; [20],31 MFI
same,fluorescence intensity,[6]; [13],33 MFI
same,fluorescence intensity,[6]; [14],35.8 MFI
same,fluorescence intensity,[7]; [15],25.8 MFI
same,fluorescence intensity,[7]; [16],26 MFI
same,fluorescence intensity,[7]; [17],28 MFI
same,fluorescence intensity,[7]; [18],25.5 MFI
same,fluorescence intensity,[7]; [19],24.5 MFI
same,fluorescence intensity,[7]; [20],26 MFI
same,fluorescence intensity,[7]; [13],29.5 MFI
same,fluorescence intensity,[7]; [14],45.5 MFI
same,fluorescence intensity,[8]; [15],32 MFI
same,fluorescence intensity,[8]; [16],32.8 MFI
same,fluorescence intensity,[8]; [17],30.5 MFI
same,fluorescence intensity,[8]; [18],31.5 MFI
same,fluorescence intensity,[8]; [19],30 MFI
same,fluorescence intensity,[8]; [20],31 MFI
same,fluorescence intensity,[8]; [13],33 MFI
same,fluorescence intensity,[8]; [14],37 MFI
same,fluorescence intensity,[9]; [15],18.8 MFI
same,fluorescence intensity,[9]; [16],17.5 MFI
same,fluorescence intensity,[9]; [17],17.2 MFI
same,fluorescence intensity,[9]; [18],19 MFI
same,fluorescence intensity,[9]; [19],19 MFI
same,fluorescence intensity,[9]; [20],18.5 MFI
same,fluorescence intensity,[9]; [13],19.5 MFI
same,fluorescence intensity,[9]; [14],24.5 MFI
same,fluorescence intensity,[10]; [15],16.5 MFI
same,fluorescence intensity,[10]; [16],15.8 MFI
same,fluorescence intensity,[10]; [17],16.5 MFI
same,fluorescence intensity,[10]; [18],17 MFI
same,fluorescence intensity,[10]; [19],15.8 MFI
same,fluorescence intensity,[10]; [20],16.5 MFI
same,fluorescence intensity,[10]; [13],16 MFI
same,fluorescence intensity,[10]; [14],21 MFI
same,fluorescence intensity,[11]; [15],19 MFI
same,fluorescence intensity,[11]; [16],18 MFI
same,fluorescence intensity,[11]; [17],21 MFI
same,fluorescence intensity,[11]; [18],19.5 MFI
same,fluorescence intensity,[11]; [19],17 MFI
same,fluorescence intensity,[11]; [20],20 MFI
same,fluorescence intensity,[11]; [13],22.2 MFI
same,fluorescence intensity,[11]; [14],32 MFI
same,fluorescence intensity,[12]; [15],17.8 MFI
same,fluorescence intensity,[12]; [16],18.5 MFI
same,fluorescence intensity,[12]; [17],20.2 MFI
same,fluorescence intensity,[12]; [18],19 MFI
same,fluorescence intensity,[12]; [19],18.5 MFI
same,fluorescence intensity,[12]; [20],18.8 MFI
same,fluorescence intensity,[12]; [13],21.8 MFI
same,fluorescence intensity,[12]; [14],35.5 MFI

# Three neighbouring entries already listed, quoted:
binder,measurement,setting,value
B1,fluorescence intensity,[11]; [18],19.5 MFI
same,fluorescence intensity,[11]; [19],17 MFI
same,fluorescence intensity,[11]; [20],20 MFI

# Two entries from above, bar-delimited.
binder | measurement | setting | value
B1 | fluorescence intensity | [5]; [16] | 22 MFI
same | fluorescence intensity | [5]; [17] | 22.8 MFI
